Measured values as given in the supplement of paper PMC10849652.
This is one part of the list.

Chains of the proteins cited; added tags and fusions are not shown. Lines headed by an entry give the natural chain unless they say otherwise; changes in a name come on top.
UniProt O75937: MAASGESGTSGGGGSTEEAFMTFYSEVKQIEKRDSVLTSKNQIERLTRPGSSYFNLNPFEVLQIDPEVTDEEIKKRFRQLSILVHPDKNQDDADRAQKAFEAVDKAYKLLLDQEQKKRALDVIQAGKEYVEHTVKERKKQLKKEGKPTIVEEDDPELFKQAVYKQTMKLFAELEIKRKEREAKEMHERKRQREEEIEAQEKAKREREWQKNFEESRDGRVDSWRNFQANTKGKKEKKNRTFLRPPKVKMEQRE
UniProt P25685, whole entry, looked up: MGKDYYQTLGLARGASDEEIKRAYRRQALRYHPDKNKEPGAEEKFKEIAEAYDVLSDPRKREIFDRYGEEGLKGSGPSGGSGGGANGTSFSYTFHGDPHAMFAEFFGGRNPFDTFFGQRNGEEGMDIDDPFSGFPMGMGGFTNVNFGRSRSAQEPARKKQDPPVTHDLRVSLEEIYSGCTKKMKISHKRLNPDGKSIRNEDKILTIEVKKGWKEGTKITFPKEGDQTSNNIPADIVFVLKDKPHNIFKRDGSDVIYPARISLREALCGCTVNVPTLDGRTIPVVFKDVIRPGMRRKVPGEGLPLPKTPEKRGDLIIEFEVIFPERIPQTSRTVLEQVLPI
UniProt O00429, whole entry, looked up: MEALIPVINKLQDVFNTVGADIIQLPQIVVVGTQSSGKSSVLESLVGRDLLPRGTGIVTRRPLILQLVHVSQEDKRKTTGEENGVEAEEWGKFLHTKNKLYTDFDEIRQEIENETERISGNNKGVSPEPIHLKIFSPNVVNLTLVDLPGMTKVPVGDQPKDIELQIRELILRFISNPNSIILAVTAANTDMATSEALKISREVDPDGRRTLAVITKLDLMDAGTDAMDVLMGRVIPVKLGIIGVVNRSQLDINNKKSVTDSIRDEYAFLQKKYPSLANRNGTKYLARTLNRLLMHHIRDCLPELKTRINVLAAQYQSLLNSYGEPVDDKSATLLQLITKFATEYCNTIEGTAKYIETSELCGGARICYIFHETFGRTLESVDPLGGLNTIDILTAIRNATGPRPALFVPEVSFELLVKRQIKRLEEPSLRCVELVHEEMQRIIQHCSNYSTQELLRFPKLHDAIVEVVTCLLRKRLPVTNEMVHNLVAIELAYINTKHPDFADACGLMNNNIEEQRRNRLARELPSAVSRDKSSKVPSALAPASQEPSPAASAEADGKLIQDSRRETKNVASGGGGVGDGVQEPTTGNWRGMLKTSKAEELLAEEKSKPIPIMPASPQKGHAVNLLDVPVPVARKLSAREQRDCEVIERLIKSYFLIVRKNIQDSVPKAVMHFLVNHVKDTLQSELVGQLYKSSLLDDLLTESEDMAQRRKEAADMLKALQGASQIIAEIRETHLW
UniProt Q9BTV6: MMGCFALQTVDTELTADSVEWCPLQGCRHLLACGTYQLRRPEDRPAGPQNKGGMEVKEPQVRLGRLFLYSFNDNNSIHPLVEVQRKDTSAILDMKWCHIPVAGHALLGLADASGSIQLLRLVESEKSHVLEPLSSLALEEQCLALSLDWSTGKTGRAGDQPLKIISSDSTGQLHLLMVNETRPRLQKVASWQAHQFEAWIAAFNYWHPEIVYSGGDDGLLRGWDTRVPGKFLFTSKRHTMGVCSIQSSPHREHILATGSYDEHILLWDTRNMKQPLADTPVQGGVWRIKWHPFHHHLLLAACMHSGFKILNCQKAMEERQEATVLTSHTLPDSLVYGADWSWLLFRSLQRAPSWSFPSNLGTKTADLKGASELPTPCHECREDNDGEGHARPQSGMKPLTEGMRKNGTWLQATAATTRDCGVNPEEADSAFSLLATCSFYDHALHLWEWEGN
UniProt Q9BVJ7: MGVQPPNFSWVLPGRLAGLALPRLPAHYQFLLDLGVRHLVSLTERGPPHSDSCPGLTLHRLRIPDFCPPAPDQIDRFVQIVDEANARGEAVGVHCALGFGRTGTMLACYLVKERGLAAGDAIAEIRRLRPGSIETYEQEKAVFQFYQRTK
UniProt O75165, whole entry, looked up: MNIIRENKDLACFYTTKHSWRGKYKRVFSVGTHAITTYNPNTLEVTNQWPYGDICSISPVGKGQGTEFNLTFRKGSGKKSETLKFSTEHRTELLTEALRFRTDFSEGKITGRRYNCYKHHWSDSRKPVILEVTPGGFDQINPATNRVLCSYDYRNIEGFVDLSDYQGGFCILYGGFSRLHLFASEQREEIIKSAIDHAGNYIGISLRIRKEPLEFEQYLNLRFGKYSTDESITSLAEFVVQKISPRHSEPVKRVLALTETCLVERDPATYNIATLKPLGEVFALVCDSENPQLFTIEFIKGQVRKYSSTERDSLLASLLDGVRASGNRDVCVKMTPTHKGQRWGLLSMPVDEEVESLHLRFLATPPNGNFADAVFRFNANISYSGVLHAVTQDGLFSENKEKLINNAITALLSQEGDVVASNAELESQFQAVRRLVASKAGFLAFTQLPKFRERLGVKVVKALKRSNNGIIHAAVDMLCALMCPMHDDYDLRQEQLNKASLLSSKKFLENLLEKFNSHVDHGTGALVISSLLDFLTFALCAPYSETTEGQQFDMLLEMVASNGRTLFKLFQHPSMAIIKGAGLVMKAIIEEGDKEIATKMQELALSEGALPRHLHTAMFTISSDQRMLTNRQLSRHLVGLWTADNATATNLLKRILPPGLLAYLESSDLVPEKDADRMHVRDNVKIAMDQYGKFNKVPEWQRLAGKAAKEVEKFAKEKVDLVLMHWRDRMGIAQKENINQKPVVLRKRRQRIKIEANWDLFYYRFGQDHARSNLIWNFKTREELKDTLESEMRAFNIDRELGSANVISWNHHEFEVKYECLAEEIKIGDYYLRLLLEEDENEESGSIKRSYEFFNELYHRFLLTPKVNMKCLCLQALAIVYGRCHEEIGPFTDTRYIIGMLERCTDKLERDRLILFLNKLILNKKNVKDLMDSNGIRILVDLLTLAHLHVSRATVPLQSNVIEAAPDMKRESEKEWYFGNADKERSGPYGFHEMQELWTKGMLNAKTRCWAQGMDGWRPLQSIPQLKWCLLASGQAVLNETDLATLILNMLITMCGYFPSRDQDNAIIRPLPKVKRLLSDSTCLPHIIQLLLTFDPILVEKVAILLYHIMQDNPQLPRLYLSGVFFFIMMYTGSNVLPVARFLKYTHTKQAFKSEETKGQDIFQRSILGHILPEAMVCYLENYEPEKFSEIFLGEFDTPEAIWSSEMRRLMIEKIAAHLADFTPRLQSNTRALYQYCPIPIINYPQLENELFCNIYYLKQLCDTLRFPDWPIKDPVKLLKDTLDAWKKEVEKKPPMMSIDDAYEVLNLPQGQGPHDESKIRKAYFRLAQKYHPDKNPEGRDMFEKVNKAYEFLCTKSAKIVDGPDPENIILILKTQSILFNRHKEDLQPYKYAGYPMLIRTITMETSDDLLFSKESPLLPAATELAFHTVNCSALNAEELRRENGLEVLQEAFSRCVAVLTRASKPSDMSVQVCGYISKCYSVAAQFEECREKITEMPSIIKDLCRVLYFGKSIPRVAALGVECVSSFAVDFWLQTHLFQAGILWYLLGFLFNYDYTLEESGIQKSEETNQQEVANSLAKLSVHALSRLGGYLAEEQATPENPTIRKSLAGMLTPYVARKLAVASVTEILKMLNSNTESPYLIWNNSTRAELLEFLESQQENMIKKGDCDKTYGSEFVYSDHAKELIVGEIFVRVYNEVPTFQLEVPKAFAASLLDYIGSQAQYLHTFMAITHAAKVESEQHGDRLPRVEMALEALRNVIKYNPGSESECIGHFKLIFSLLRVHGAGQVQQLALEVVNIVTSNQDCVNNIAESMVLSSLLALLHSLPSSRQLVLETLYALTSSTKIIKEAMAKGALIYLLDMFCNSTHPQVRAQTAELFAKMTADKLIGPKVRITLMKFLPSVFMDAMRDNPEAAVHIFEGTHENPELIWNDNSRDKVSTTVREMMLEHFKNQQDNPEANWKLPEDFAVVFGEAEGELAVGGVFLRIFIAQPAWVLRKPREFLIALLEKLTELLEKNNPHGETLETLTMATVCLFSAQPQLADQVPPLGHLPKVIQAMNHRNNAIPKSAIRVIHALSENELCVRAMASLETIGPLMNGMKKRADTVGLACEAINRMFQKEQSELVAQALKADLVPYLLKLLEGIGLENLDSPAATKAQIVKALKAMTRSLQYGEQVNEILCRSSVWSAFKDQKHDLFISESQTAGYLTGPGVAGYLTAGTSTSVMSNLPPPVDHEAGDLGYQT
UniProt Q8IXB1: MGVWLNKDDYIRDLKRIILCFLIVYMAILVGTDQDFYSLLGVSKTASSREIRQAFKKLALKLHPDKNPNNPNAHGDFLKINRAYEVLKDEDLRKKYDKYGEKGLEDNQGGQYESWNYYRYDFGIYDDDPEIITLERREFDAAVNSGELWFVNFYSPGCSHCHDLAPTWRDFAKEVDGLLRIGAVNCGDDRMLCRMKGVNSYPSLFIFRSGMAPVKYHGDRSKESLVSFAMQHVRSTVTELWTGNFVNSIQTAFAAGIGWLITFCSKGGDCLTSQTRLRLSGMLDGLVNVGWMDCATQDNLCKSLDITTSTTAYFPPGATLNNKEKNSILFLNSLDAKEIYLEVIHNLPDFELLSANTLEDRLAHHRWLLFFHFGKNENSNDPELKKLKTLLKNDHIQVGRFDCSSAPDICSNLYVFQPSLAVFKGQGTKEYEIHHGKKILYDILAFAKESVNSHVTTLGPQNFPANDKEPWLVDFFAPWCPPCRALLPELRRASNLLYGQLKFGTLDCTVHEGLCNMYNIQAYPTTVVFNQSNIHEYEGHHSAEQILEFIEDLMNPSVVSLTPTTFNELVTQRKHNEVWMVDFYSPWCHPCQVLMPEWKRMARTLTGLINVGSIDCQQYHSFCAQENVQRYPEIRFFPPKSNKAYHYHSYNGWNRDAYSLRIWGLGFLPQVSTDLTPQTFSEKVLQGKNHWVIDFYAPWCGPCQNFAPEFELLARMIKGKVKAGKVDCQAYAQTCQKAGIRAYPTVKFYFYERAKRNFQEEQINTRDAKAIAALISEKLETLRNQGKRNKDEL
UniProt Q9NYP3: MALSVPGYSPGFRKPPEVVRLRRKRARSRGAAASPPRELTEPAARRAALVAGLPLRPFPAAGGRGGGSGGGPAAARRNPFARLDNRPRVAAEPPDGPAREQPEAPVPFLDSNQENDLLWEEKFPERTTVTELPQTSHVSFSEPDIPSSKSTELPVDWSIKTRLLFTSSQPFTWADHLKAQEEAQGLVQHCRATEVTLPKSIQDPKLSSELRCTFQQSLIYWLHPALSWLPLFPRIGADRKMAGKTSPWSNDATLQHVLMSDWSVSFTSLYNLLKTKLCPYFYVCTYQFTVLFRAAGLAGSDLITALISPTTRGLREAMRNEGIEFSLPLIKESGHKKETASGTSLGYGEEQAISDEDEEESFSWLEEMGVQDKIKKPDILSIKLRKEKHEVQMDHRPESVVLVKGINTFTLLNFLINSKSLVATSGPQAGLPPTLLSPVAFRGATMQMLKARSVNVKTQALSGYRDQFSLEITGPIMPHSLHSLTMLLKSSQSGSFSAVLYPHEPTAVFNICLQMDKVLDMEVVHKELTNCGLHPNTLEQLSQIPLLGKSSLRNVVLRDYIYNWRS

Assays:
Assay in all cases: log2 fold change, soluble protein after heating vs DMSO (PISA); higher = thermal stabilisation; K562 cells, 10 uM, 30 min; active = over 0.2 and 3.5 SD of the protein, either way, in both replicates (recomputed)
[1] = compound: CN1CCN(CCOc2cc(OC3CCOCC3)c3c(Nc4c(Cl)ccc5c4OCO5)ncnc3c2)CC1 [saracatinib]
In short: (§1)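 Quantification of soluble protein used TMTpro 16plex LC-MS/MS, with channel sums equalised. Samples were the supernatant after 21,000xg for 90 min of pooled aliquots from K562 cells (2×10^6 cells/mL) treated with 10 μM compound for 30 min, heated for 3 min over 48°C-58°C, and extracted in PBS with 0.5% NP-40 at 4°C. Values, from duplicates, describe thermal stability against control samples on a log2 fold-change scale.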

[2] = compound: CN1CCN(c2nc(C3=C(c4c[nH]c5ccccc45)C(=O)NC3=O)c3ccccc3n2)CC1 [sotrastaurin]
In short: as §1

[3] = compound: CN1CC[C@H](c2c(O)cc(O)c3c(=O)cc(-c4ccccc4Cl)oc23)[C@H](O)C1 [alvocidib]
In short: as §1

[4] = compound: CN1CCc2c(c3ccccc3n2Cc2ccc(C(=O)NO)cc2)C1 [Tubastatin A]
In short: as §1

[5] = compound: CNC(=O)C1=CC=CC=C1NC2=NC(=NC=C2Cl)NC3=C(C=C(C=C3)N4CCOCC4)OC
In short: as §1

[6] = compound: CNC(=O)c1ccc(Nc2ncc(C(F)(F)F)c(NCc3nccnc3N(C)S(C)(=O)=O)n2)cc1 [defactinib]
In short: as §1

[7] = compound: CNCc1ccc(-c2[nH]c3cc(F)cc4c3c2CCNC4=O)cc1 [rucaparib]
In short: as §1

[8] = compound: CNc1nc(-c2ccc3c(N)n[nH]c3c2)cc(N2C[C@@H](C(=O)NC3CCCCC3)CC[C@H]2C)n1
In short: as §1

[9] = compound: COC(=O)N[C@@H](C)CNc1nccc(-c2cn(C(C)C)nc2-c2cc(Cl)cc(NS(C)(=O)=O)c2F)n1 [encorafenib]
In short: as §1

[10] = compound: COC(=O)[C@H](CCSC)NC(=O)C1=C(C=C(C=C1)NC[C@H](CS)N)C2=CC=CC=C2
In short: as §1

[11] = compound: COC1=CC=C(C=C1)CN2C=CC3=C2C=C(C=C3)C(=O)NO
In short: as §1

[12] = compound: CON(C)C(=O)N1N=C(c2cc(F)ccc2F)S[C@@]1(CCCN)c1ccccc1 [filanesib]
In short: as §1

[13] = compound: CO[C@H]1C[C@@H]2CC[C@@H](C)[C@@](O)(O2)C(=O)C(=O)N2CCCC[C@H]2C(=O)O[C@H]([C@H](C)C[C@@H]2CC[C@H](n3cnnn3)[C@H](OC)C2)CC(=O)[C@H](C)/C=C(\C)[C@@H](O)[C@@H](OC)C(=O)[C@H](C)C[C@H](C)/C=C/C=C/C=C/1C [zotarolimus]
In short: as §1

[14] = compound: COc1cc(C(=O)O)ccc1NC(=O)[C@@H]1N[C@@H](CC(C)(C)C)[C@](C#N)(c2ccc(Cl)cc2F)[C@H]1c1cccc(Cl)c1F [idasanutlin]
In short: as §1

[15] = compound: COc1cc(Nc2ncc3c(n2)-c2ccc(Cl)cc2C(c2c(F)cccc2OC)=NC3)ccc1C(=O)O [alisertib]
In short: as §1

[16] = compound: COc1cc2nc(-c3cc(F)ccc3O)nc(N[C@@H]3CNC[C@H]3C(C)(C)O)c2cc1OC
In short: as §1

[17] = compound: COc1cc2ncnc(Nc3ccc(F)c(Cl)c3)c2cc1OCCCN1CCOCC1 [gefitinib]
In short: as §1

[18] = compound: COc1cccc2cc(-c3nc([C@H]4CC[C@H](C(=O)O)CC4)n4ncnc(N)c34)[nH]c12
In short: as §1

[19] = compound: CS(=O)(=O)CCNCc1ccc(-c2ccc3ncnc(Nc4ccc(OCc5cccc(F)c5)c(Cl)c4)c3c2)o1 [lapatinib]
In short: as §1

[20] = compound: CS(=O)(=O)N1CCN(Cc2cc3nc(-c4cccc5[nH]ncc45)nc(N4CCOCC4)c3s2)CC1 [pictilisib]
In short: as §1

Measured: log2 fold change

DNAJC8 (UniProt O75937)
inactive: [1] -0.028 | [2] 0.015 | [3] -0.047 | [4] -0.014 | [5] 0.028 | [6] -0.032 | [7] -0.044 | [8] -0.015 | [9] 0.039 | [10] -0.027 | [11] 0.019 | [12] -0.018 | [13] 0.039 | [14] -0.024 | [15] 0.009 | [16] 0.054 | [17] -0.013 | [18] -0.007 | [19] -0.058 | [20] 0.009

DNAJB1 (UniProt P25685)
inactive: [1] -0.003 | [2] -0.03 | [4] -0.001 | [5] -0.011 | [6] -0.05 | [7] -0.025 | [8] -0.033 | [9] -0.009 | [10] -0.017 | [11] 0.07 | [12] -0.013 | [13] 0.007 | [14] -0.032 | [15] -0.063 | [16] 0.046 | [17] 0.06 | [18] 0.003 | [19] -0.032 | [20] 0.005

DNM1L isoform 6 (UniProt O00429)
inactive: [1] 0.005 | [2] 0.047 | [3] -0.048 | [4] -0.007 | [5] -0.041 | [6] 0.015 | [7] -0.014 | [8] -0.021 | [9] 0.006 | [10] -0.032 | [11] 0.008 | [12] -0.087 | [13] 0.012 | [14] -0.087 | [15] -0.05 | [16] 0.034 | [17] -0.015 | [18] 0.035 | [19] -0.013 | [20] 0.067

DPH7 (UniProt Q9BTV6)
inactive: [1] 0.012 | [2] 0.002 | [3] -0.023 | [4] 0.088 | [5] -0.007 | [6] -0.023 | [7] -0.033 | [8] 0.031 | [9] 0.019 | [10] 0.045 | [11] -0.028 | [12] 0.009 | [13] 0.014 | [14] 0.057 | [15] 0.706 | [16] 0.078 | [17] 0.026 | [18] 0.014 | [19] -0.109 | [20] 0.056

DUSP23 (UniProt Q9BVJ7)
inactive: [1] 0.019 | [2] -0.02 | [3] -0.028 | [4] 0.042 | [5] -0.029 | [6] 0.071 | [7] 0.031 | [8] 0.01 | [9] -0.001 | [10] -0.059 | [11] -0.025 | [12] 0.01 | [13] 0.058 | [14] 0.096 | [15] -0.033 | [16] -0.054 | [17] 0.001 | [18] 0.036 | [19] 0.022 | [20] 0.048

DNAJC13 (UniProt O75165)
inactive: [1] 0.007 | [2] 0.023 | [3] -0.029 | [4] -0.006 | [5] -0.015 | [6] -0.087 | [7] 0.003 | [8] -0.008 | [9] 0.034 | [10] -0.057 | [11] 0.066 | [12] 0.039 | [13] 0.072 | [14] 0.029 | [15] 0.122 | [16] 0.008 | [17] -0.05 | [18] -0.208 | [19] 0.05 | [20] 0.014

DNAJC10 (UniProt Q8IXB1)
inactive: [1] -0.026 | [2] -0.017 | [3] 0.015 | [4] 0.043 | [5] -0.042 | [6] 0.095 | [7] 0.127 | [8] 0.077 | [9] 0.04 | [10] -0.011 | [11] 0.087 | [12] 0.041 | [13] 0.052 | [14] 0.046 | [15] -0.29 | [16] -0.136 | [17] -0.006 | [18] -0.081 | [19] 0.13 | [20] -0.031

DONSON (UniProt Q9NYP3)
inactive: [1] -0.164 | [2] -0.113 | [3] 0.008 | [4] 0.166 | [6] 0.076 | [7] 0.308 | [8] 0.094 | [9] 0.145 | [10] -0.02 | [11] 0.119 | [12] 0.339 | [13] 0.036 | [14] 0.014 | [17] -0.309 | [20] 0.249
